# This is one part of the list.
# Columns and labels:
# Assay in all cases: glycan array binding signal (z-score within array); higher = stronger binding
# Details in all cases: glycan notation: IUPAC condensed, linker removed
# Fuc(a1-2)Gal = molecular target: Fuc(a1-2)Gal
# Method in brief: (§1)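 The binding signal is a Z-score computed within each array. Data were drawn from 3228 arrays in the Consortium for Functional Glycomics database, restricted to those with a known protein sequence. Scores were averaged over arrays of the same protein sequence at different concentrations or buffers, and over linkers, and negative values can be taken as non-binding.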
# Fuc(a1-2)Gal(b1-3)GalNAc = molecular target: Fuc(a1-2)Gal(b1-3)GalNAc
# Method in brief: as §1
# [1] = molecular target: Fuc(a1-2)Gal(b1-3)GalNAc(a1-3)[Fuc(a1-2)]Gal(b1-4)Glc
# Method in brief: as §1
# [2] = molecular target: Fuc(a1-2)Gal(b1-3)GalNAc(a1-3)[Fuc(a1-2)]Gal(b1-4)GlcNAc
# Method in brief: as §1
# [3] = molecular target: Fuc(a1-2)Gal(b1-3)GalNAc(b1-3)Gal
# Method in brief: as §1
# [4] = molecular target: Fuc(a1-2)Gal(b1-3)GalNAc(b1-3)Gal(a1-4)Gal(b1-4)Glc
# Method in brief: as §1
# [5] = molecular target: Fuc(a1-2)Gal(b1-3)GalNAc(b1-4)[Neu5Ac(a2-3)]Gal(b1-4)Glc
# Method in brief: as §1
# Fuc(a1-2)Gal(b1-3)GlcNAc = molecular target: Fuc(a1-2)Gal(b1-3)GlcNAc
# Method in brief: as §1
# [6] = molecular target: Fuc(a1-2)Gal(b1-3)GlcNAc(b1-2)Man(a1-3)[Fuc(a1-2)Gal(b1-3)GlcNAc(b1-2)Man(a1-6)]Man(b1-4)GlcNAc(b1-4)GlcNAc
# Method in brief: as §1
# [7] = molecular target: Fuc(a1-2)Gal(b1-3)GlcNAc(b1-2)Man(a1-3)[Fuc(a1-2)Gal(b1-3)GlcNAc(b1-2)Man(a1-6)]Man(b1-4)GlcNAc(b1-4)[Fuc(a1-6)]GlcNAc
# Method in brief: as §1
# [8] = molecular target: Fuc(a1-2)Gal(b1-3)GlcNAc(b1-3)Gal(b1-4)Glc
# Method in brief: as §1
# [9] = molecular target: Fuc(a1-2)Gal(b1-3)GlcNAc(b1-3)GalNAc
# Method in brief: as §1
# [10] = molecular target: Fuc(a1-2)Gal(b1-3)GlcNAc(b1-3)[Fuc(a1-2)Gal(b1-3)GlcNAc(b1-6)]GalNAc
# Method in brief: as §1
# [11] = molecular target: Fuc(a1-2)Gal(b1-3)GlcNAc(b1-3)[Gal(b1-4)GlcNAc(b1-6)]Gal(b1-4)Glc
# Method in brief: as §1
# [12] = molecular target: Fuc(a1-2)Gal(b1-3)GlcNAc(b1-3)[Neu5Ac(a2-6)Gal(b1-4)GlcNAc(b1-6)]Gal(b1-4)Glc
# Method in brief: as §1
# [13] = molecular target: Fuc(a1-2)Gal(b1-3)GlcNAc6S
# Method in brief: as §1
# [14] = molecular target: Fuc(a1-2)Gal(b1-3)[Fuc(a1-4)]GlcNAc
# Method in brief: as §1
# [15] = molecular target: Fuc(a1-2)Gal(b1-3)[Fuc(a1-4)]GlcNAc(b1-2)Man(a1-3)[Fuc(a1-2)Gal(b1-3)[Fuc(a1-4)]GlcNAc(b1-2)Man(a1-3)]Man(b1-4)GlcNAc(b1-4)GlcNAc
# Method in brief: as §1
# [16] = molecular target: Fuc(a1-2)Gal(b1-3)[Fuc(a1-4)]GlcNAc(b1-2)Man(a1-3)[Fuc(a1-2)Gal(b1-3)[Fuc(a1-4)]GlcNAc(b1-2)Man(a1-6)]Man(b1-4)GlcNAc(b1-4)[Fuc(a1-6)]GlcNAc(b1-4)[Fuc(a1-6)]GlcNAc
# Method in brief: as §1
# [17] = molecular target: Fuc(a1-2)Gal(b1-3)[Fuc(a1-4)]GlcNAc(b1-3)[Fuc(a1-3)[Gal(b1-4)]GlcNAc(b1-6)]Gal(b1-4)Glc
# Method in brief: as §1
# [18] = molecular target: Fuc(a1-2)Gal(b1-3)[Fuc(a1-4)]GlcNAc(b1-3)[Gal(b1-4)GlcNAc(b1-6)]Gal(b1-4)Glc
# Method in brief: as §1
# [19] = molecular target: Fuc(a1-2)Gal(b1-4)Fuc(a1-3)]GlcNAc(b1-2)Man(a1-3)[Fuc(a1-2)Gal(b1-4)[Fuc(a1-3)]GlcNAc(b1-2)Man(a1-6)]Man(b1-4)GlcNAc(b1-4)GlcNAc
# Method in brief: as §1
# Fuc(a1-2)Gal(b1-4)Glc = molecular target: Fuc(a1-2)Gal(b1-4)Glc
# Method in brief: as §1
# Fuc(a1-2)Gal(b1-4)Glc6S = molecular target: Fuc(a1-2)Gal(b1-4)Glc6S
# Method in brief: as §1
# Fuc(a1-2)Gal(b1-4)GlcNAc = molecular target: Fuc(a1-2)Gal(b1-4)GlcNAc
# Method in brief: as §1
# [20] = molecular target: Fuc(a1-2)Gal(b1-4)GlcNAc(b1-2)Man
# Method in brief: as §1
# [21] = molecular target: Fuc(a1-2)Gal(b1-4)GlcNAc(b1-2)Man(a1-3)[Fuc(a1-2)Gal(b1-4)GlcNAc(b1-2)Man(a1-6)]Man(b1-4)GlcNAc(b1-4)GlcNAc
# Method in brief: as §1
# [22] = molecular target: Fuc(a1-2)Gal(b1-4)GlcNAc(b1-2)Man(a1-3)[Fuc(a1-2)Gal(b1-4)GlcNAc(b1-2)Man(a1-6)]Man(b1-4)GlcNAc(b1-4)[Fuc(a1-6)]GlcNAc
# Method in brief: as §1
# [23] = molecular target: Fuc(a1-2)Gal(b1-4)GlcNAc(b1-2)[Fuc(a1-2)Gal(b1-4)GlcNAc(b1-4)]Man(a1-3)[Fuc(a1-2)Gal(b1-4)GlcNAc(b1-2)Man(a1-6)]Man(b1-4)GlcNAc(b1-4)GlcNAc
# Method in brief: as §1
# [24] = molecular target: Fuc(a1-2)Gal(b1-4)GlcNAc(b1-3)Gal(b1-4)GlcNAc
# Method in brief: as §1
binder,measurement,setting,value
"LysMD3 (Homo sapiens), Q7Z3D4 (protein) MAGRHQNRSFPLPGVQSSGQVHAFGNCSDSDILEEDAEVYELRSRGKEKVRRSTSRDRLDDIIVLTKDIQEGDTLNAIALQYCCTVADIKRVNNLISDQDFFALRSIKIPVKKFSSLTETLCPPKGRQTSRHSSVQYSSEQQEILPANDSLAYSDSAGSFLKEVDRDIEQIVKCTDNKRENLNEVVSALTAQQMRFEPDNKNTQRKDPYYGADWGIG",glycan array binding signal (z-score),Fuc(a1-2)Gal,0.661
same,glycan array binding signal (z-score),Fuc(a1-2)Gal(b1-3)GalNAc,-0.536
same,glycan array binding signal (z-score),[1],-0.091
same,glycan array binding signal (z-score),[2],-0.867
same,glycan array binding signal (z-score),[3],-0.99
same,glycan array binding signal (z-score),[4],0.086
same,glycan array binding signal (z-score),[5],-0.144
same,glycan array binding signal (z-score),Fuc(a1-2)Gal(b1-3)GlcNAc,0.182
same,glycan array binding signal (z-score),[6],0.159
same,glycan array binding signal (z-score),[7],0.739
same,glycan array binding signal (z-score),[8],-0.119
same,glycan array binding signal (z-score),[9],0.587
same,glycan array binding signal (z-score),[10],0.08
same,glycan array binding signal (z-score),[11],-0.707
same,glycan array binding signal (z-score),[12],0.587
same,glycan array binding signal (z-score),[13],-0.457
same,glycan array binding signal (z-score),[14],0.255
same,glycan array binding signal (z-score),[15],-0.272
same,glycan array binding signal (z-score),[16],0.341
same,glycan array binding signal (z-score),[17],-0.747
same,glycan array binding signal (z-score),[18],-0.685
same,glycan array binding signal (z-score),[19],-1.11
same,glycan array binding signal (z-score),Fuc(a1-2)Gal(b1-4)Glc,0.506
same,glycan array binding signal (z-score),Fuc(a1-2)Gal(b1-4)Glc6S,-0.391
same,glycan array binding signal (z-score),Fuc(a1-2)Gal(b1-4)GlcNAc,1.02
same,glycan array binding signal (z-score),[20],-0.973
same,glycan array binding signal (z-score),[21],0.353
same,glycan array binding signal (z-score),[22],0.664
same,glycan array binding signal (z-score),[23],-0.03
same,glycan array binding signal (z-score),[24],0.791

# Retrieved one by one from above, 2 records:
binder,measurement,setting,value
"LysMD3 (Homo sapiens), Q7Z3D4 (protein) MAGRHQNRSFPLPGVQSSGQVHAFGNCSDSDILEEDAEVYELRSRGKEKVRRSTSRDRLDDIIVLTKDIQEGDTLNAIALQYCCTVADIKRVNNLISDQDFFALRSIKIPVKKFSSLTETLCPPKGRQTSRHSSVQYSSEQQEILPANDSLAYSDSAGSFLKEVDRDIEQIVKCTDNKRENLNEVVSALTAQQMRFEPDNKNTQRKDPYYGADWGIG",glycan array binding signal (z-score),[1],-0.091
same,glycan array binding signal (z-score),[14],0.255

# Reference: the supplement of paper PMC8728848
